The results in this text go back to paper PMC12822480.

The target in this assay is T1, interleukin‐11 (IL‐11) (human (endogenous in 231‐LC cells)) (UniProt P20809).
T1 sequence: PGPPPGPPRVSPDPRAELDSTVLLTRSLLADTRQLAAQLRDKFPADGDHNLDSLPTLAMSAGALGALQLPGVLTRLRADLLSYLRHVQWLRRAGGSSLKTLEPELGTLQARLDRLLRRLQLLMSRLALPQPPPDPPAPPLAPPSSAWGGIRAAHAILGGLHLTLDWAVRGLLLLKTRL
The assay can be described thus: co-IP; concentrated serum‐free conditioned medium of 231‐LC cells (10 kDa filter) incubated with IL‐11 antibody or IgG isotype control in IP buffer at 4 °C for 12 h; protein A/G agarose beads for 2 h at room temperature; eluate analysed by Western blot.

Results are given in words; binding and its absence hold for the method and conditions named. Binding seen in cells or lysates may run through a third protein. Some results given as binding are weak or reduced against the parent protein; the word gives no strength.

B1: soluble IL‐11 receptor (sIL‐11R) (receptor, UniProt Q14626 24-370)
chain: SPCPQAWGPPGVQYGQPGRSVKLCCPGVTAGDPVSWFRDGEPKLLQGPDSGLGHELVLAQADSTDEGTYICQTLDGALGGTVTLQLGYPPARPVVSCQAADYENFSCTWSPSQISGLPTRYLTSYRKKTVLGADSQRRSPSTGPWPCPQDPLGAARCVVHGAEFWSQYRINVTEVNPLGASTRLLDVSLQSILRPDPPQGLRVESVPGYPRRLRASWTYPASWPCQPHFLLKFRLQYRPAQHPAWSTVEPAGLEEVITDAVAGLPHAVRVSARDFLDAGTWSTWSPEAWGTPSTGTIPKEIPAWGQLHTQPEVEPQVDSPAPPRPSLQPHPRLLDHRDSVEQVAVLA
For B1, the binding entry is recorded as “binds”.
